Results: PubChem BioAssay (EPA / NIEHS)
The inconclusive results got no clear call from the source; some entries with a clear call stand among them for comparison. A potency beside an inconclusive call is a rough fit, not a confirmed value. Active and inactive are the calls of the source. How the source made its calls: active means hit-call score of the fitted dose curve at least 0.9, where 1 is the maximum; inconclusive means response in the unintended direction; inactive means score below 0.9.

Protein sequences, listed by entry. Tags and fused reporters are not part of them. Lines headed by an entry give the natural chain unless they say otherwise; changes in a name come on top.
UniProt P13631, whole entry, looked up: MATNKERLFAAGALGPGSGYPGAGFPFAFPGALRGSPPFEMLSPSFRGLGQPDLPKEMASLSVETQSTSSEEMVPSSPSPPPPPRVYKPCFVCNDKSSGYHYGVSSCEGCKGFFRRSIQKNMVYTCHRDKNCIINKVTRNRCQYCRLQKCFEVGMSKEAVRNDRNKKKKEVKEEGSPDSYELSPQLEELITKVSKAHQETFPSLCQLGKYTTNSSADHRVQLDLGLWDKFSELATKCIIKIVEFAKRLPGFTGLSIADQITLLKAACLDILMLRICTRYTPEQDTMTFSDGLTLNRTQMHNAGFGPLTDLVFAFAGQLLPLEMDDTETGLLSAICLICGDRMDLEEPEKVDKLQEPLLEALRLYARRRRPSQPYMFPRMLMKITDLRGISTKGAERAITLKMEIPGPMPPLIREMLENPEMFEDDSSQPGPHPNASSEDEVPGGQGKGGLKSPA
UniProt Q92753: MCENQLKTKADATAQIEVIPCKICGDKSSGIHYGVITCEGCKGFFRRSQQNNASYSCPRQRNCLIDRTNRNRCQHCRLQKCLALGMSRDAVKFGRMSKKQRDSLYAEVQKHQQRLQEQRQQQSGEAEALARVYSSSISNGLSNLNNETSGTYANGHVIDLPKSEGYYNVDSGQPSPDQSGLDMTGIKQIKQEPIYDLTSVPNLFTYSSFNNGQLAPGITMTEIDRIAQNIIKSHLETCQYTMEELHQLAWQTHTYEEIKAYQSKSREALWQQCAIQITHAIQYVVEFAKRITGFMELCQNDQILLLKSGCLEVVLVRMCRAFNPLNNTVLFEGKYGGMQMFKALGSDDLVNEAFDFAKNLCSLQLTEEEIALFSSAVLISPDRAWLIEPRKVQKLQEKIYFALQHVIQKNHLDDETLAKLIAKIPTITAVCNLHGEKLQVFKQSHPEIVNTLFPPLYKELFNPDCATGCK
UniProt P51449: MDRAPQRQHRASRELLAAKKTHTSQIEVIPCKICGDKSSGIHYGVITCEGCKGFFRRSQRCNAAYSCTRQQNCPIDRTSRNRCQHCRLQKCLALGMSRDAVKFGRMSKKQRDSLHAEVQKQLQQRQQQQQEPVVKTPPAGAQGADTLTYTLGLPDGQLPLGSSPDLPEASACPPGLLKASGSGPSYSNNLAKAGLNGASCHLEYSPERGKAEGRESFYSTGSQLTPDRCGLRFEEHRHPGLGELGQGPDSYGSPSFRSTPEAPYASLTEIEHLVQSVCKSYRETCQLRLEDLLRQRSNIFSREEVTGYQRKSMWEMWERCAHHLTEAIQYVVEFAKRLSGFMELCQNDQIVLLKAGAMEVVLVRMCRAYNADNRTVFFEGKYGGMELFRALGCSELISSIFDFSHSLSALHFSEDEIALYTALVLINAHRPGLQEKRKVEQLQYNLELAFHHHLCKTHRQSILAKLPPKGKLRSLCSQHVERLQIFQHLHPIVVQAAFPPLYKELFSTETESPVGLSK
UniProt P28702: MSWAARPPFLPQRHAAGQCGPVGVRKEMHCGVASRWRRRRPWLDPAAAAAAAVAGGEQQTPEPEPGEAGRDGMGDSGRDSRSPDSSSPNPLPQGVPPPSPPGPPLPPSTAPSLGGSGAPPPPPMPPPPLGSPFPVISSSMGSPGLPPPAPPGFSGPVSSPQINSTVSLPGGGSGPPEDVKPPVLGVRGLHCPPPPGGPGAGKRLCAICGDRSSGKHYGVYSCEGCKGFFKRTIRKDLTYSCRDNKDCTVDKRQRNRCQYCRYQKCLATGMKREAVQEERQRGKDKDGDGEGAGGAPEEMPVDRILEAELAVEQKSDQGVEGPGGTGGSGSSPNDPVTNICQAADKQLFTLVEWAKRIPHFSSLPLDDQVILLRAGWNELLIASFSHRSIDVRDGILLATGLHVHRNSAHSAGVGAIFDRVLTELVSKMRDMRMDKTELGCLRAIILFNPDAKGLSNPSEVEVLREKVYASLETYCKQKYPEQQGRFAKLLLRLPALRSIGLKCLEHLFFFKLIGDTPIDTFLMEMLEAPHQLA
UniProt P10827: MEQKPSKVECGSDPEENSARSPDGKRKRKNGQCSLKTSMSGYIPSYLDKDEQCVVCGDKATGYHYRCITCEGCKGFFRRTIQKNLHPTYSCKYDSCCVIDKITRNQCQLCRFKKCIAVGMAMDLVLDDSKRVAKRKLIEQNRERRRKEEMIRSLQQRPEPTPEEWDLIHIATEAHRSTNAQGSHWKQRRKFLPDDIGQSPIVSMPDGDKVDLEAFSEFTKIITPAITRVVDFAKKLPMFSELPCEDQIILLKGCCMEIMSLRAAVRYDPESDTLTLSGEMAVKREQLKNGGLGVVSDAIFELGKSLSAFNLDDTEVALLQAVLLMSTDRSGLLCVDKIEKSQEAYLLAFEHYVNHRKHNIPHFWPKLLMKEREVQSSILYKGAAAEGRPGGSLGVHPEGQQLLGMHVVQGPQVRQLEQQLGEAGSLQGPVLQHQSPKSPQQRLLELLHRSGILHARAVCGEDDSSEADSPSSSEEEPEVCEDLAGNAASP
UniProt P11473: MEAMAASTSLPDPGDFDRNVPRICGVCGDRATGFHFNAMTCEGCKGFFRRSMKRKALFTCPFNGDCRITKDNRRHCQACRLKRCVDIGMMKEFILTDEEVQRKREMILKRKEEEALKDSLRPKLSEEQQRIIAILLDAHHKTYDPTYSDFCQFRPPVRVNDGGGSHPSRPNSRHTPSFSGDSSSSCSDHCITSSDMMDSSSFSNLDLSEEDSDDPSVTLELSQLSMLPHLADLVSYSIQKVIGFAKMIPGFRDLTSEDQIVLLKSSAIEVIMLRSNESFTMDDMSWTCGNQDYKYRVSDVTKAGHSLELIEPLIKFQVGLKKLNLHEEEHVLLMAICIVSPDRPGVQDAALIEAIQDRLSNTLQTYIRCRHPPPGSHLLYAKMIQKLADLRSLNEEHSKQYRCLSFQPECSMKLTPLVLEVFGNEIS
UniProt P19793: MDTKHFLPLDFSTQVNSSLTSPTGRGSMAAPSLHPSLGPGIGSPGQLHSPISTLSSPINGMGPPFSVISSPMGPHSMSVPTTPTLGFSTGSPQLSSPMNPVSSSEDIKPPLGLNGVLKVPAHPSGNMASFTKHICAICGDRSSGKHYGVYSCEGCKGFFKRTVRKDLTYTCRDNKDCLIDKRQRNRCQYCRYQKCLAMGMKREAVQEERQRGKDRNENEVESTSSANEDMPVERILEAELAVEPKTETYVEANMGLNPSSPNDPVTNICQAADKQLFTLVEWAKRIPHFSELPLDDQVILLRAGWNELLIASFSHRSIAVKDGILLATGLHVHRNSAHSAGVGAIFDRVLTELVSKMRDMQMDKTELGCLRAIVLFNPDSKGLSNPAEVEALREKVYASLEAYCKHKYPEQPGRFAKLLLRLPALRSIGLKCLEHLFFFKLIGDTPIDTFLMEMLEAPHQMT
UniProt P11511: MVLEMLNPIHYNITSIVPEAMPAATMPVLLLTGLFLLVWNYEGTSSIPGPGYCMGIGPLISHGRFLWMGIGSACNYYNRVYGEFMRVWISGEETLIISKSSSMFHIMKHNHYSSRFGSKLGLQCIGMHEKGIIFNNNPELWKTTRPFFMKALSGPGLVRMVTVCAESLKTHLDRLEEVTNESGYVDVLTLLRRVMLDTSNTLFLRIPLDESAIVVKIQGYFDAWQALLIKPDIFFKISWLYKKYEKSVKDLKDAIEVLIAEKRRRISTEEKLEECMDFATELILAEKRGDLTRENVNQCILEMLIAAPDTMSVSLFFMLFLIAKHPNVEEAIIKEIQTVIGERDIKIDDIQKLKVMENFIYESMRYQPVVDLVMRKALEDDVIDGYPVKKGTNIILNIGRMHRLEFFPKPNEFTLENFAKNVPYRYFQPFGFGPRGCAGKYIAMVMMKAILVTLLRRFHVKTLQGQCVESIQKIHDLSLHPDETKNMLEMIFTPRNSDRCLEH

Key:
[1] = biological target: human Retinoic Acid Receptor gamma (RARg), RARG (gene 5916) (UniProt P13631); assay: ATG_RARg_TRANS: Attagene TRANS-FACTORIAL HepG2 Assay for human Retinoic Acid Receptor gamma (RARg) (AID 2283009);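 on AC50: AC50 is for reporter induction above DMSO meaning RARg activation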
Procedure, shortened: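 Transient transfection of HepG2 with multi-reporter constructs, then 24 h chemical treatment. Total RNA isolated, reverse-transcribed, PCR-amplified, fluorescently labelled and resolved by capillary electrophoresis; activity scored as mRNA induction versus DMSO.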

[2] = biological target: human RAR-related Orphan Receptor beta (RORb), RORB (gene 6096) (UniProt Q92753); assay: ATG_RORb_TRANS: Attagene TRANS-FACTORIAL HepG2 Assay for human RAR-related Orphan Receptor beta (RORb) (AID 2283010);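 on AC50: potency for increased reporter mRNA meaning activation of RORb-Gal4 chimera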
Procedure, shortened: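 Readout is reporter-gene mRNA induction, detected as fluorescence after RT-PCR and capillary electrophoresis, fitted for gain of signal against DMSO controls. Transiently transfected HepG2 liver cells carrying GAL4-UAS reporter constructs were treated for 24 hours.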

[3] = biological target: human RAR-related Orphan Receptor gamma (RORg), RORC (gene 6097) (UniProt P51449); assay: ATG_RORg_TRANS: Attagene TRANS-FACTORIAL HepG2 Assay for human RAR-related Orphan Receptor gamma (RORg) (AID 2283011);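 on AC50: potency for induction of reporter transcripts above DMSO so activators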
Procedure, shortened: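 First, HepG2 liver cells were transfected with GAL4-UAS-driven reporter constructs and the RORg-Gal4 fusion. Next, they were treated with chemical for 24 h. Finally, reporter mRNA was quantified by RT-PCR and capillary electrophoresis, with upward activity fitted against DMSO.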

[4] = biological target: human Retinoid X Receptor beta (RXRb), RXRB (gene 6257) (UniProt P28702); assay: ATG_RXRb_TRANS: Attagene TRANS-FACTORIAL HepG2 Assay for human Retinoid X Receptor beta (RXRb) (AID 2283013)
Procedure, shortened: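 Transfect HepG2 with GAL4-UAS multi-reporter constructs (chimeric NR-Gal4, TRANS format); dose compound 24 h; isolate RNA, RT-PCR, FAM primer extension, HpaI digest; quantify by capillary electrophoresis; positive direction vs DMSO.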

[5] = biological target: human Thyroid Receptor alpha (THRa1), THRA (gene 7067) (UniProt P10827); assay: ATG_THRa1_TRANS: Attagene TRANS-FACTORIAL HepG2 Assay for human Thyroid Receptor alpha (THRa1) (AID 2283014)
Procedure, shortened: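 Reporter transcript induction, read by capillary electrophoresis of 6-FAM-labelled RT-PCR products, reflects activity of a transfected THRa1-Gal4 fusion in HepG2 liver cells. Cells were dosed for 24 h; activity was fitted in the positive direction against DMSO.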

[6] = biological target: human Vitamin D Receptor (VDR), VDR (gene 7421) (UniProt P11473); assay: ATG_VDR_TRANS: Attagene TRANS-FACTORIAL HepG2 Assay for human Vitamin D Receptor (VDR) (AID 2283022)
Procedure, shortened: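 Steps: transfect HepG2 with GAL4-UAS-driven reporter constructs; dose compounds 24 h; isolate RNA, reverse-transcribe, PCR-amplify with 6-FAM-labelled primer extension and HpaI digestion; quantify fragments by capillary electrophoresis relative to DMSO.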

[7] = biological target: Retinoic acid receptor RXR-alpha (Homo sapiens) (UniProt P19793); assay: ATG_RXRa_TRANS: Attagene TRANS-FACTORIAL HepG2 Assay for human Retinoid X Receptor alpha (RXRa) (AID 2283012)
Procedure, shortened: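 Transient transfection of human HepG2 with multiple GAL4-UAS reporter constructs; 24 h compound exposure; total RNA isolated, reverse-transcribed, PCR-amplified, 6-FAM labelled, HpaI-cut, resolved by capillary electrophoresis. Positive-direction fit versus DMSO.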

[8] = biological target: human CYP19A1, CYP19A1 (gene 1588) (UniProt P11511); assay: NVS_ADME_hCYP19A1: NovaScreen (NVS) CYP450-related Enzyme Activity (ADME) Assay for human CYP19A1 (AID 2283098);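 further: potency for inhibitors seen as loss of fluorescent enzyme signal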
Procedure, shortened: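 Cell-free enzyme assay with recombinant protein and a specific fluorogenic substrate, read by fluorescence intensity 0.5 h after dosing. Primary screen ran in duplicate at 10 uM; actives were retested in concentration series. Loss of signal versus acetonitrile baseline.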

Structure (SMILES): C[C@]12CCC(=O)C=C1CC[C@@H]1[C@@H]2C(=O)C[C@@]2(C)[C@H]1CC[C@]2(O)C(=O)CO
- AC50 [1]: inconclusive: 0.0823 µM
- AC50 [2]: inconclusive: 177 µM
- AC50 [5]: inconclusive: 48.6 µM

Structure (SMILES): CCCCC(CC)COCC1CO1 (stereo not given)
- AC50 [1]: inconclusive: 100 µM
- AC50 [2]: inconclusive: 100 µM
- outcome [4]: inactive
- outcome [5]: inactive
- AC50 [6]: inconclusive: 100 µM

Structure (SMILES): CCOC(=O)C(C)Oc1ccc(Oc2nc3ccc(Cl)cc3o2)cc1 (stereo not given)
- AC50 [1]: inconclusive: 11.2 µM
- AC50 [2]: inconclusive: 11.2 µM
- outcome [5]: inactive

Structure (SMILES): OB(O)O
- outcome [1]: inactive
- outcome [2]: inactive
- AC50 [4]: inconclusive: 11.8 µM
- AC50 [5]: inconclusive: 50 µM

Structure (SMILES): CCCCCCCCSCCO
- AC50 [1]: inconclusive: 168 µM
- AC50 [2]: inconclusive: 143 µM
- outcome [4]: inactive
- AC50 [5]: inconclusive: 100 µM

Structure (SMILES): C=CC(=O)OCC(F)(F)C(F)(F)C(F)(F)C(F)(F)COC(=O)C=C
- AC50 [1]: inconclusive: 24.1 µM
- AC50 [2]: inconclusive: 150 µM
- AC50 [4]: active: 1.1 µM
- outcome [5]: inactive

Structure (SMILES): Nc1c(Cl)cc(Cl)cc1[N+](=O)[O-]
- outcome [1]: inactive
- AC50 [2]: inconclusive: 21.5 µM
- outcome [7]: inactive
- outcome [5]: inactive

Structure (SMILES): COC(=O)c1ccc2cc(C(=O)OC)ccc2c1
- outcome [1]: inactive
- outcome [2]: inactive
- AC50 [4]: inconclusive: 24.4 µM
- outcome [5]: inactive

Structure (SMILES): CCCCCCCCCCCCc1ccccc1S(=O)(=O)O
- outcome [1]: inactive
- AC50 [2]: inconclusive: 11.1 µM
- AC50 [4]: active: 9.1 µM
- AC50 [5]: inconclusive: 11.1 µM
- AC50 [8]: inconclusive: 0.153 µM

Structure (SMILES): CCCCC(CC)COC(=O)/C=C\C(=O)OCC(CC)CCCC (stereo not given)
- AC50 [1]: inconclusive: 17.1 µM
- AC50 [3]: inconclusive: 0.0109 µM
- AC50 [7]: inconclusive: 100 µM
- AC50 [4]: inconclusive: 100 µM
- AC50 [5]: inconclusive: 7.08 µM

Structure (SMILES): CCCCCCCCCCCCCO
- AC50 [1]: inconclusive: 185 µM
- AC50 [2]: inconclusive: 103 µM
- AC50 [4]: active: 58.9 µM
- AC50 [5]: inconclusive: 103 µM
- outcome [6]: inactive

Structure (SMILES): CN(c1nccc(=O)[nH]1)C1CCN(c2nc3ccccc3n2Cc2ccc(F)cc2)CC1
- outcome [1]: inactive
- AC50 [2]: inconclusive: 46 µM
- outcome [5]: inactive
- outcome [6]: inactive

Structure (SMILES): OCc1cccc(Oc2ccccc2)c1
- AC50 [1]: inconclusive: 4.69 µM
- AC50 [2]: inconclusive: 188 µM
- AC50 [4]: active: 100 µM

Structure (SMILES): CC(C)(C)c1n[nH]c(=O)n(N)c1=O
- outcome [1]: inactive
- AC50 [2]: inconclusive: 100 µM
- AC50 [4]: inconclusive: 100 µM
- AC50 [5]: inconclusive: 100 µM
- AC50 [6]: inconclusive: 100 µM

Structure (SMILES): C=C1CC[C@H](O)C/C1=C/C=C1\CCC[C@]2(C)[C@@H]([C@H](C)/C=C/[C@H](C)C(C)C)CC[C@@H]12
- AC50 [1]: inconclusive: 100 µM
- AC50 [2]: inconclusive: 19.8 µM
- AC50 [4]: inconclusive: 100 µM
- AC50 [5]: inconclusive: 100 µM
- AC50 [6]: active: 3.98 µM

Structure (SMILES): CCCC1O[C@@H]2C[C@H]3[C@@H]4CCC5=CC(=O)C=C[C@]5(C)[C@H]4[C@@H](O)C[C@]3(C)[C@]2(C(=O)CO)O1 (stereo not given in full)
- outcome [1]: inactive
- AC50 [3]: inconclusive: 63 µM
- AC50 [7]: inconclusive: 0.0604 µM
- AC50 [4]: inconclusive: 100 µM
- AC50 [5]: inconclusive: 156 µM

Structure (SMILES): O=C(O[C@@H]1Cc2c(O)cc(O)cc2O[C@@H]1c1cc(O)c(O)c(O)c1)c1cc(O)c(O)c(O)c1
- outcome [1]: inactive
- AC50 [2]: inconclusive: 168 µM
- outcome [4]: inactive

Structure (SMILES): N[C@@H](Cc1cc(I)c(Oc2cc(I)c(O)c(I)c2)c(I)c1)C(=O)O
- AC50 [1]: inconclusive: 3.94 µM
- outcome [2]: inactive
- AC50 [4]: active: 69 µM
- outcome [6]: inactive

Structure (SMILES): CCCOCCO
- AC50 [1]: inconclusive: 95 µM
- outcome [2]: inactive
- AC50 [7]: inconclusive: 0.0986 µM
- outcome [5]: inactive

Structure (SMILES): CCCCCCCCCC(=O)OC
- AC50 [1]: inconclusive: 169 µM
- AC50 [2]: inconclusive: 155 µM
- AC50 [7]: inconclusive: 0.51 µM
- AC50 [5]: inconclusive: 160 µM

Structure (SMILES): O=C(Cl)c1c(Cl)c(Cl)c(C(=O)Cl)c(Cl)c1Cl
- outcome [1]: inactive
- AC50 [2]: inconclusive: 100 µM
- AC50 [4]: active: 100 µM
- AC50 [5]: inconclusive: 100 µM

Structure (SMILES): CCCCCC(C)=O
- AC50 [1]: inconclusive: 100 µM
- AC50 [2]: inconclusive: 48.6 µM
- AC50 [5]: inconclusive: 100 µM
- AC50 [6]: inconclusive: 100 µM
